Experimental data from paper PMC8009681.

Sequences of proteins named here, by UniProt entry; tags and fusion partners are left off. A change or cut given only in a name is not applied to a line headed by its entry.
UniProt Q9LXU1: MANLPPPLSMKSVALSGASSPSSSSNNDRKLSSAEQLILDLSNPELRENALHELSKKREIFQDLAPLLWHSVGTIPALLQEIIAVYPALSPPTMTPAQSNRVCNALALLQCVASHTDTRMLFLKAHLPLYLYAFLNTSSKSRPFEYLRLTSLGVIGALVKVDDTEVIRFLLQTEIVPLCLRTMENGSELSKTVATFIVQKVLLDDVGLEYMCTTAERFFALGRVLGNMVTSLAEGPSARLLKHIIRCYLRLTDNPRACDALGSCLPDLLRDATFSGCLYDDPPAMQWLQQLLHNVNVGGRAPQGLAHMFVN

Tests used:
[1] = molecular target: T1, phyA-BD (Arabidopsis thaliana) (UniProt P14712); assay: two-hybrid; ONPG assay of β-Gal activity, Y190, liquid CSM with 10 μM phycocyanobilin
T1 sequence: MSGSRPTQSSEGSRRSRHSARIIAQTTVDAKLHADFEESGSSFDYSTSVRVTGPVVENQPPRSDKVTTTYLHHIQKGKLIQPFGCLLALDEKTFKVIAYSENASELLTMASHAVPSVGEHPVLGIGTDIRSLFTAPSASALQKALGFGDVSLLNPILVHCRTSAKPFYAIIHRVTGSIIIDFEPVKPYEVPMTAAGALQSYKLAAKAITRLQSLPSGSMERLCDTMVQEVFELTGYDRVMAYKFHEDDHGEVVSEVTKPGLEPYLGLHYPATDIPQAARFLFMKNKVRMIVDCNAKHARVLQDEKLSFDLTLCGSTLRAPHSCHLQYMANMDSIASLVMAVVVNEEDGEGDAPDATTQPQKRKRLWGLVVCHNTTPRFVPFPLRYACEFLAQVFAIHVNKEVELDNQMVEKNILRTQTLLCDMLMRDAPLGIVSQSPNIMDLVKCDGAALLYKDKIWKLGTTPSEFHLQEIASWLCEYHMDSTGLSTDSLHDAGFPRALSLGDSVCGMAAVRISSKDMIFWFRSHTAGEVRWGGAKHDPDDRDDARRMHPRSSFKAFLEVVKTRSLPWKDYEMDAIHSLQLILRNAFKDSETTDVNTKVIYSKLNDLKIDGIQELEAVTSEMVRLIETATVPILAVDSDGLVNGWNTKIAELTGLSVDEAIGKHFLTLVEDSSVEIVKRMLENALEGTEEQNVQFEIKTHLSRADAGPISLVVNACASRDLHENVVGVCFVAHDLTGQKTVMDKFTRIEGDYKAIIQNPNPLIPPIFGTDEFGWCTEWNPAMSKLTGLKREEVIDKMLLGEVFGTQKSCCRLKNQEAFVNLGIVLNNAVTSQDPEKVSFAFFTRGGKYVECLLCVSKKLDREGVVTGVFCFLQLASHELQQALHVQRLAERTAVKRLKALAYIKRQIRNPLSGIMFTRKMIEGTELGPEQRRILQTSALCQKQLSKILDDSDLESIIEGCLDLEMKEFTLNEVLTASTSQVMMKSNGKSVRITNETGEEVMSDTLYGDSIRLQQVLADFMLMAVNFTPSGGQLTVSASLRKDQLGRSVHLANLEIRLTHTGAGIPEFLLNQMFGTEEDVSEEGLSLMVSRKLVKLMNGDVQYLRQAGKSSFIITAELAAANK

[2] = molecular target: T1, phyA-BD (Arabidopsis thaliana); assay: two-hybrid; initial Y2H screen for phyA-interacting proteins, done as previously described (Sheerin et al., 2015)
[3] = molecular target: T1, phyA-BD (Arabidopsis thaliana); assay: yeast three-hybrid competition assay; AH109 with a two-hybrid pair and a NOT1 fragment as potential competitor; R light, CSM LTH- plates with 20 μM phycocyanobilin and increasing amounts of 3-AT
[4] = molecular target: T2, N-terminal 406 amino acids of phyA (Arabidopsis thaliana) (UniProt P14712); assay: two-hybrid; growth assay, AH109, CSM LTH- plates with 20 μM phycocyanobilin and 3-AT (5, 10 or 30 mM by panel), R light (660 nm; phyA Pfr), 26°C
T2 sequence: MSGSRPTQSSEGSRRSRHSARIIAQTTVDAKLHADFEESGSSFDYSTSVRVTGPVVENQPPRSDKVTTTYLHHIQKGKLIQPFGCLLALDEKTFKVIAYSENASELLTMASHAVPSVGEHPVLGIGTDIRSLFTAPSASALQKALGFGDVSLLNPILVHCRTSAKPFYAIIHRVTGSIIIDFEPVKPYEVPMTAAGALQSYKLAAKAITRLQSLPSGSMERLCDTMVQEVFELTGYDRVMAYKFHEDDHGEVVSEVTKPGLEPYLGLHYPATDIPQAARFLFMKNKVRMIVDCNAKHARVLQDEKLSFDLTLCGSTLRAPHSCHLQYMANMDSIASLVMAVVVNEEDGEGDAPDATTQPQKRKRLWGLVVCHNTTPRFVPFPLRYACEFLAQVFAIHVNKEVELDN

[5] = molecular target: T1, phyA-BD (Arabidopsis thaliana); assay: as above
[6] = molecular target: T1, phyA-BD (Arabidopsis thaliana); assay: two-hybrid; growth assay, AH109, CSM LTH- plates with 20 μM phycocyanobilin and 5 mM 3-AT, FR light (740 nm; phyA Pr), 26°C
[7] = molecular target: T3, phyA-GFP (Arabidopsis thaliana) (UniProt P14712); assay: co-IP; HEK293T cells, medium with 20 μM PCB; total soluble protein, αGFP magnetic beads, blots with αGFP and αmyc
T3 sequence: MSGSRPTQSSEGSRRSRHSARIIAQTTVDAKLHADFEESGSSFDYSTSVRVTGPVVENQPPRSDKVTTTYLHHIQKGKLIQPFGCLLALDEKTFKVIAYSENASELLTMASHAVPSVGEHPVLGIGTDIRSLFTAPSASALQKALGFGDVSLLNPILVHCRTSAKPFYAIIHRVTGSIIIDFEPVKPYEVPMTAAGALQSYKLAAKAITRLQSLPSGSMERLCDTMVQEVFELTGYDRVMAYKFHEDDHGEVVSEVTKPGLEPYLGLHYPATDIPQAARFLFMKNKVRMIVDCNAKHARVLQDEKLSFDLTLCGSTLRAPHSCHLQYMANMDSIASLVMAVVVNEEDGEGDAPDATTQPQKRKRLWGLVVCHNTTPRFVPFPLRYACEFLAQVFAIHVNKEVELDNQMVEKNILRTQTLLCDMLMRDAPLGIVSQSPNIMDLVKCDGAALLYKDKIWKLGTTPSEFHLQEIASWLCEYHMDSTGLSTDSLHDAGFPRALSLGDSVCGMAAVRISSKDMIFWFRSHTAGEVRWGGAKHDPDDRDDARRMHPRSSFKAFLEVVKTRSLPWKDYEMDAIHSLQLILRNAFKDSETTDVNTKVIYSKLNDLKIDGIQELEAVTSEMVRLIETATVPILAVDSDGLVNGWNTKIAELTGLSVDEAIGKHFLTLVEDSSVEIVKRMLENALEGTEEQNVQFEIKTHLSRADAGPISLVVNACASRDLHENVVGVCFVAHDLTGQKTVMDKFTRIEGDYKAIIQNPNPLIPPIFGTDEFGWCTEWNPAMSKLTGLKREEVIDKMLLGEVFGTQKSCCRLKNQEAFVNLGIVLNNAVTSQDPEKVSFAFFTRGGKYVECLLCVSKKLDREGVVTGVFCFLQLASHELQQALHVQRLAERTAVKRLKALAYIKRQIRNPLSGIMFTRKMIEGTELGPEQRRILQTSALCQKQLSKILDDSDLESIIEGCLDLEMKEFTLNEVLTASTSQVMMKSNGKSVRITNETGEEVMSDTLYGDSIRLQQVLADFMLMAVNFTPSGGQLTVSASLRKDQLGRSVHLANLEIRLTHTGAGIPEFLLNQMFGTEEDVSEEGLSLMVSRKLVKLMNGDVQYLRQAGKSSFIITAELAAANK

[8] = molecular target: T4, phyA-LUC-BD (Arabidopsis thaliana) (UniProt P14712); assay: yeast three-hybrid competition assay; AH109 with a two-hybrid pair and a NOT1 fragment as potential competitor; R light, CSM LTH- plates with 20 μM phycocyanobilin and increasing amounts of 3-AT
T4 sequence: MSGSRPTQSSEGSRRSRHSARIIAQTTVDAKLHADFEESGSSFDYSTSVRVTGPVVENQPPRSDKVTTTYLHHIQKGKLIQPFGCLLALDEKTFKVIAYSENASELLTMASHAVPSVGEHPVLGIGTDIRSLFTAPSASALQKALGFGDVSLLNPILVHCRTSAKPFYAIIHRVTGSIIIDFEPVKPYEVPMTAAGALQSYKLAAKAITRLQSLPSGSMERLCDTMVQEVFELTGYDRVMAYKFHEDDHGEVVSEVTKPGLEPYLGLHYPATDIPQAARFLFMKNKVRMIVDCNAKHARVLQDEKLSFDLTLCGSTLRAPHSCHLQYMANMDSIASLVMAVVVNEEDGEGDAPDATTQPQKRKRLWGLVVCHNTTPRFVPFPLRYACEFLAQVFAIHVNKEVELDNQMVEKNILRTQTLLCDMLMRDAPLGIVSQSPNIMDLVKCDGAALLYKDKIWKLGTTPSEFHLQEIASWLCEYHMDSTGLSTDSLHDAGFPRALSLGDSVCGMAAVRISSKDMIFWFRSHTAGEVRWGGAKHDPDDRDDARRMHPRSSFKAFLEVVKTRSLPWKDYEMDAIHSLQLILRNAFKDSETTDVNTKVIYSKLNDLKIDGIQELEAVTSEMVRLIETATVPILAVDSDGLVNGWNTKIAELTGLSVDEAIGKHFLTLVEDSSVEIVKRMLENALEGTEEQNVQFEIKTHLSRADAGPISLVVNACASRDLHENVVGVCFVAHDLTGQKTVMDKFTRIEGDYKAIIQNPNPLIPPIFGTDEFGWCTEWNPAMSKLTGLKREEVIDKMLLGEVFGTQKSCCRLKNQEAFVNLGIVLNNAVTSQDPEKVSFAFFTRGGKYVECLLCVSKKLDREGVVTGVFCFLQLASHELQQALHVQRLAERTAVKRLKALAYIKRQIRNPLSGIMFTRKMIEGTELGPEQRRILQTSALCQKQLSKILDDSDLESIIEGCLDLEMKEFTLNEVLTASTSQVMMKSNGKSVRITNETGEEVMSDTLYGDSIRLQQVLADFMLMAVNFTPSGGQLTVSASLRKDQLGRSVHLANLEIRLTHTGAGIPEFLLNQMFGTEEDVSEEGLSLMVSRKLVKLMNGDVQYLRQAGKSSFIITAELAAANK

- binding [1]: binds
- binding [2]: binds
- binding [3]: binds
- binding [4]: binds
- binding [5]: binds
- binding [6]: binds
Substance: AD-NOT9B (from UniProt Q9LXU1)

- binding [7]: binds
Substance: FLAG-myc-mCherry-NOT9B (Arabidopsis thaliana)

- binding [8]: binds
Substance: HA-AD-NOT9B (Arabidopsis thaliana)

These are yes or no findings as the source states them, for the method shown. Binding can be weak; no strength is given. For some assays here: Where a sequence is shown, tags or fusion partners need not be part of it. For some assays here: In cells and extracts the contact can be indirect. One block for each substance: values may come before it.
